From article PMC12163073
No constants are given. Whether binding was seen depends on the method and setting. Binding seen in cells or lysates may run through a third protein. Some results given as binding are weak or reduced against the parent protein; the word gives no strength.

Protein sequences, listed by entry. Tags and fused reporters are not part of them.
UniProt Q86WV6: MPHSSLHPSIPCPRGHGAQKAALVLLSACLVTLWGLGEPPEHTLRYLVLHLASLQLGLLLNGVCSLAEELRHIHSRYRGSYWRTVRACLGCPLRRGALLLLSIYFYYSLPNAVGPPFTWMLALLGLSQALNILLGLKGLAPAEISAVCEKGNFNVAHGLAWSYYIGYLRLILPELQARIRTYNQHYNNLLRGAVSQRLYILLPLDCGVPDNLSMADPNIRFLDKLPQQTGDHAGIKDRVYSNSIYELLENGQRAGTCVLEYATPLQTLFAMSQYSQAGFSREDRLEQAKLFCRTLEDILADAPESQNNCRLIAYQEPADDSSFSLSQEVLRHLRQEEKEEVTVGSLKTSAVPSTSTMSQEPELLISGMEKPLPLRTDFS
UniProt P11103: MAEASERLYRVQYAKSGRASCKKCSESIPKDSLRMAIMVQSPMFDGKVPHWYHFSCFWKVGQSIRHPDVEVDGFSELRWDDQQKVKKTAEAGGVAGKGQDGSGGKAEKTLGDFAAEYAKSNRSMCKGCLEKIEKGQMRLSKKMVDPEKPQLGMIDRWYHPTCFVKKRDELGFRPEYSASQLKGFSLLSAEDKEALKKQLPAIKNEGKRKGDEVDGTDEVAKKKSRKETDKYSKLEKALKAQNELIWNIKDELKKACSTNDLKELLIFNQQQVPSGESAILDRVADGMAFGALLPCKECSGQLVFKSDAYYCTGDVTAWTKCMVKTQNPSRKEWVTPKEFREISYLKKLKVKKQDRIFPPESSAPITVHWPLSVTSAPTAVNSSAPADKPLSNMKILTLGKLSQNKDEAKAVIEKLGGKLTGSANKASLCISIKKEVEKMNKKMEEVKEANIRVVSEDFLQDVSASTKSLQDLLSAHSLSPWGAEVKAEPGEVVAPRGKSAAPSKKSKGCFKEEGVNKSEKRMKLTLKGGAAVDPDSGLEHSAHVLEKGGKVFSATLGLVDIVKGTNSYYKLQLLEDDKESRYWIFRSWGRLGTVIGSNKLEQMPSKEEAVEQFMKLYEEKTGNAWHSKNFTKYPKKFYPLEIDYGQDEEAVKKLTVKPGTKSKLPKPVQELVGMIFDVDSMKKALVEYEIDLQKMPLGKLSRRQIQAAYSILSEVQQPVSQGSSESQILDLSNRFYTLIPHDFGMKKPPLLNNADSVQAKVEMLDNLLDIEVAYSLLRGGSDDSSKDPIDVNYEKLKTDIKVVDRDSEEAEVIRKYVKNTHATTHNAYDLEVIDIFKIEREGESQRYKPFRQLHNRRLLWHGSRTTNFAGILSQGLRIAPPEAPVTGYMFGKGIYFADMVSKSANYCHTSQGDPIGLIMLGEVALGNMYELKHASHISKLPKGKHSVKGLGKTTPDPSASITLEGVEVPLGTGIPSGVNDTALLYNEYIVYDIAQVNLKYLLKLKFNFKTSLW
UniProt P09874: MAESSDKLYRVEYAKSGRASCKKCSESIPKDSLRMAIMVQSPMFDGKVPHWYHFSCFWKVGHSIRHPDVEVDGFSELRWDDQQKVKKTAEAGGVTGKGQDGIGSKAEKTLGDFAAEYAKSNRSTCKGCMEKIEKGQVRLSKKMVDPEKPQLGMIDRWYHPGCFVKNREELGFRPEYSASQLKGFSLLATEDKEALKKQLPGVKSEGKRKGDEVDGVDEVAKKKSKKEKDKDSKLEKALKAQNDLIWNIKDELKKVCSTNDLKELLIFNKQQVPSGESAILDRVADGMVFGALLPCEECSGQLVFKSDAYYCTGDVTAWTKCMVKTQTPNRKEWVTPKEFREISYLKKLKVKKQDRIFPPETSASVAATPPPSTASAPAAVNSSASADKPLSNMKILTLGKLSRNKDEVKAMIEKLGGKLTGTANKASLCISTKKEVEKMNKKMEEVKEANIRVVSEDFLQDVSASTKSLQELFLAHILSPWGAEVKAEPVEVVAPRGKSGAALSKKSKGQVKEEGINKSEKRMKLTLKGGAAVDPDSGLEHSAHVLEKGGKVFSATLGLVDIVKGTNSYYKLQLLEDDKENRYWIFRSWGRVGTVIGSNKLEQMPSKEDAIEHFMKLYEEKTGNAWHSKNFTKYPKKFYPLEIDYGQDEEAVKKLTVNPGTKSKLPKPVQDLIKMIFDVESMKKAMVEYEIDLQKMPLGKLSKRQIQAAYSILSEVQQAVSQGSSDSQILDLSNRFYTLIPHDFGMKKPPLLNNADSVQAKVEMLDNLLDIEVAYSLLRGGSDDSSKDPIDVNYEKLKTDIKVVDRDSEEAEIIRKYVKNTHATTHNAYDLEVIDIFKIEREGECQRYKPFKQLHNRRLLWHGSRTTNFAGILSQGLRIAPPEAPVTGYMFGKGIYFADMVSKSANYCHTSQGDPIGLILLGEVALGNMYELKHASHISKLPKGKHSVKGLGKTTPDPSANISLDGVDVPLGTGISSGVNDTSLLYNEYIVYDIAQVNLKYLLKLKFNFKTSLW

Assays:
[1] = target: T1, stimulator of interferon genes (STING), mouse, endogenous in BMDMs (mouse (endogenous in BMDMs)) (UniProt Q3TBT3); test: co-IP; lysates (NP40 buffer) of BMDMs or THP-1 cells with and without IR; BMDM lysates immunoprecipitated with anti-STING beads, immunoblotting
T1 sequence: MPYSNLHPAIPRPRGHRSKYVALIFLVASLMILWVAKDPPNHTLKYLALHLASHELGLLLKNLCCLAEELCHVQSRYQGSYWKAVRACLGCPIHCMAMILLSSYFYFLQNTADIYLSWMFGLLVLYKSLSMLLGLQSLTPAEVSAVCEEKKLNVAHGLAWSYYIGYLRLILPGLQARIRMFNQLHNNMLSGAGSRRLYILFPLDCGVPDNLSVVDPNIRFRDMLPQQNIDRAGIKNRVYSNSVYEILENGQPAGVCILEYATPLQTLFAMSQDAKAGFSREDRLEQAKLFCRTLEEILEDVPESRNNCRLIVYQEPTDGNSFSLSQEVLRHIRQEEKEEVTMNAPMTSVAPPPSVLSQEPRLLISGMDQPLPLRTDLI

[2] = target: stimulator of interferon genes (STING), human, endogenous (human (endogenous in THP-1 and MDA-MB-231)) (UniProt Q86WV6); test: as above
[3] = target: stimulator of interferon genes (STING), human, endogenous (human (endogenous in THP-1 and MDA-MB-231)) (UniProt Q86WV6); test: proximity ligation; Duolink in situ PLA in MDA-MB-231 cells treated with 20 Gy irradiation; mouse anti-STING1 and rabbit anti-PARP antibodies
[4] = target: stimulator of interferon genes (STING), human, endogenous (human (endogenous in THP-1 and MDA-MB-231)) (UniProt Q86WV6); test: proximity ligation; Duolink in situ PLA in MDA-MB-231 cells without irradiation (CON); mouse anti-STING1 and rabbit anti-PARP antibodies
MYC-tagged STING = MYC-tagged STING (UniProt Q86WV6); test: co-IP; lysates of STING^-/- THP-1 cells reconstituted with MYC-tagged STING, after IR; immunoblotting

## poly (ADP-ribose) polymerase-1 (PARP1), mouse, endogenous in BMDMs (from UniProt P11103 1-1013)
[1]
  binding: binds

## poly (ADP-ribose) polymerase-1 (PARP1), human, endogenous (from UniProt P09874 1-1014)
[2]
  binding: binds
[3]
  binding: binds
[4]
  binding: no binding (condition: cells without radiation)
MYC-tagged STING
  binding: binds
